# Data as given in the supplement of paper PMC12819154, “High-throughput peptide-centric local stability assay extends protein–ligand identification to membrane proteins, tissues and bacteria” (Nature Structural & Molecular Biology, 2025).
# Sequences of proteins named here, by UniProt entry; tags and fusion partners are left off. A change or cut given only in a name is not applied to a line headed by its entry.
# UniProt Q86XK3: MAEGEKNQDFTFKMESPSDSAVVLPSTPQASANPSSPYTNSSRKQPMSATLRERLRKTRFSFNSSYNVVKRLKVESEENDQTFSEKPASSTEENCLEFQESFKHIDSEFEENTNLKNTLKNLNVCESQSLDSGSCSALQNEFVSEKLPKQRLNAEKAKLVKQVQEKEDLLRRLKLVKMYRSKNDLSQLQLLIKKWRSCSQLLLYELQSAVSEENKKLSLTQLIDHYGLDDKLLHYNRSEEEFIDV
# UniProt Q86YM7: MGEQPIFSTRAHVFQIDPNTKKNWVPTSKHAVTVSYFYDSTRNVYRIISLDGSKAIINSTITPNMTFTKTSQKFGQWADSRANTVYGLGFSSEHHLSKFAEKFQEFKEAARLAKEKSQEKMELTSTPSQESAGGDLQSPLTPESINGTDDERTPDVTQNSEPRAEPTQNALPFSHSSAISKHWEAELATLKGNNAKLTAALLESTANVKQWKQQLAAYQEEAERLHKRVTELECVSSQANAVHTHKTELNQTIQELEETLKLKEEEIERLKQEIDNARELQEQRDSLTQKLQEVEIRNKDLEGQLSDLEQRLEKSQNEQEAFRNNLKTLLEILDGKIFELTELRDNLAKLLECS
# UniProt Q8IXB1: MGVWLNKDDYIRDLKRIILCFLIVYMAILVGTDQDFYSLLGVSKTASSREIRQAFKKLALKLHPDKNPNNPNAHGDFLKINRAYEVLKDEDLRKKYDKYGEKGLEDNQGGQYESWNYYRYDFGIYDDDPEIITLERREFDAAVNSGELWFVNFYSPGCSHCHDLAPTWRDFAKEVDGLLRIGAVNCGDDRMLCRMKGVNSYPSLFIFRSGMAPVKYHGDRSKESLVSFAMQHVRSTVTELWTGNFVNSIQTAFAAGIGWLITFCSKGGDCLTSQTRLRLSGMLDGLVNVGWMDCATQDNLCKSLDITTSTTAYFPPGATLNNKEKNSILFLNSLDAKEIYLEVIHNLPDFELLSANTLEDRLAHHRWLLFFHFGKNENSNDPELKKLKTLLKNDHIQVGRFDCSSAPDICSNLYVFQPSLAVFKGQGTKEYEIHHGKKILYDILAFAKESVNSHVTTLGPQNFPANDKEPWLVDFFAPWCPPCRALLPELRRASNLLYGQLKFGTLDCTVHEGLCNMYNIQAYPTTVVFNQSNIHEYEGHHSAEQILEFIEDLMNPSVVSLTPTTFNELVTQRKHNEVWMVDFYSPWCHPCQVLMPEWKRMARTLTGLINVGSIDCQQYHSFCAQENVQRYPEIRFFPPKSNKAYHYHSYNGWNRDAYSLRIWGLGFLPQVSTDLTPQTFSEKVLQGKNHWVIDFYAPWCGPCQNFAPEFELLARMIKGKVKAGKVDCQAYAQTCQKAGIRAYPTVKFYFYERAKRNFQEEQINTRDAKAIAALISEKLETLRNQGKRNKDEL
# UniProt Q86VI3: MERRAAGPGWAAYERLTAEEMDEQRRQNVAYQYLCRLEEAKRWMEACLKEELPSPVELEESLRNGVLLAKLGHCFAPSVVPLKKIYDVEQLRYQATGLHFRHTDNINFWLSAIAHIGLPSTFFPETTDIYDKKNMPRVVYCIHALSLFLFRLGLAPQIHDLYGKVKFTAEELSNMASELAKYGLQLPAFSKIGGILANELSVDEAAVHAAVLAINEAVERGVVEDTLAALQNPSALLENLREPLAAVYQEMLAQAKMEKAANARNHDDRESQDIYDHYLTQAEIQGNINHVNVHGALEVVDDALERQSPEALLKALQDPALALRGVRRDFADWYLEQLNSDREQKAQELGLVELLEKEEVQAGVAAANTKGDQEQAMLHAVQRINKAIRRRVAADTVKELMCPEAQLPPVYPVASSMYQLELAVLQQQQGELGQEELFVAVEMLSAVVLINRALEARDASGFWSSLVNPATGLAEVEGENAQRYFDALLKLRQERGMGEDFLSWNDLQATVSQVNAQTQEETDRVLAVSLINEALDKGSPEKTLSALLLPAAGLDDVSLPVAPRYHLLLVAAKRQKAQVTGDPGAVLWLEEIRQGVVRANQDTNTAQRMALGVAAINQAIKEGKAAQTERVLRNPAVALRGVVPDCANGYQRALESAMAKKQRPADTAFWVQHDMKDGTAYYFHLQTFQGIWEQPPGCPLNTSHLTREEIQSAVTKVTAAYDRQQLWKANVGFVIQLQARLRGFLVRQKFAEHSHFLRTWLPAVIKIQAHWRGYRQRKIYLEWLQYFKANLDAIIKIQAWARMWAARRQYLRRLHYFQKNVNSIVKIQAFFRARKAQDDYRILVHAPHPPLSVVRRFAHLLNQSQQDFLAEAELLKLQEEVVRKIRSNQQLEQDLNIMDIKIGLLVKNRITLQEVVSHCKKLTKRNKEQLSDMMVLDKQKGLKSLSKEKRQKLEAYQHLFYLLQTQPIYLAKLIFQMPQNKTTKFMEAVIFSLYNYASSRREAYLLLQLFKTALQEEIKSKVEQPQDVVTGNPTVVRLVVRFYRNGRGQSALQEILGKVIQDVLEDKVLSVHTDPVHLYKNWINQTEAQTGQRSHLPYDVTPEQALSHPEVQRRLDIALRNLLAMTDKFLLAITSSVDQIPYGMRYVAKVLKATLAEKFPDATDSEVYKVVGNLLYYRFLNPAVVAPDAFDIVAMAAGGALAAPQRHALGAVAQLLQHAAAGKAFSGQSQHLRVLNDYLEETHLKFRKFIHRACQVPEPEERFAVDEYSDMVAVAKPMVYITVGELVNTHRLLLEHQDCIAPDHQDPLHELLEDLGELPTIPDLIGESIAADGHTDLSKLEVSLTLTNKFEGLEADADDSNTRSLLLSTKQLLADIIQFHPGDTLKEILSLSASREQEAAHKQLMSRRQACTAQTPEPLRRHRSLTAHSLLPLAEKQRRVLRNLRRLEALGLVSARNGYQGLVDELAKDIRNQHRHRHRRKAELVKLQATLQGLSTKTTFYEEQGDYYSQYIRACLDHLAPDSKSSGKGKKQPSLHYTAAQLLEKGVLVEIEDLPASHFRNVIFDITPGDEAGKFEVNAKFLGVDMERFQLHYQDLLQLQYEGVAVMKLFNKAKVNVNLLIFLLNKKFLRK
# UniProt Q8IYH5: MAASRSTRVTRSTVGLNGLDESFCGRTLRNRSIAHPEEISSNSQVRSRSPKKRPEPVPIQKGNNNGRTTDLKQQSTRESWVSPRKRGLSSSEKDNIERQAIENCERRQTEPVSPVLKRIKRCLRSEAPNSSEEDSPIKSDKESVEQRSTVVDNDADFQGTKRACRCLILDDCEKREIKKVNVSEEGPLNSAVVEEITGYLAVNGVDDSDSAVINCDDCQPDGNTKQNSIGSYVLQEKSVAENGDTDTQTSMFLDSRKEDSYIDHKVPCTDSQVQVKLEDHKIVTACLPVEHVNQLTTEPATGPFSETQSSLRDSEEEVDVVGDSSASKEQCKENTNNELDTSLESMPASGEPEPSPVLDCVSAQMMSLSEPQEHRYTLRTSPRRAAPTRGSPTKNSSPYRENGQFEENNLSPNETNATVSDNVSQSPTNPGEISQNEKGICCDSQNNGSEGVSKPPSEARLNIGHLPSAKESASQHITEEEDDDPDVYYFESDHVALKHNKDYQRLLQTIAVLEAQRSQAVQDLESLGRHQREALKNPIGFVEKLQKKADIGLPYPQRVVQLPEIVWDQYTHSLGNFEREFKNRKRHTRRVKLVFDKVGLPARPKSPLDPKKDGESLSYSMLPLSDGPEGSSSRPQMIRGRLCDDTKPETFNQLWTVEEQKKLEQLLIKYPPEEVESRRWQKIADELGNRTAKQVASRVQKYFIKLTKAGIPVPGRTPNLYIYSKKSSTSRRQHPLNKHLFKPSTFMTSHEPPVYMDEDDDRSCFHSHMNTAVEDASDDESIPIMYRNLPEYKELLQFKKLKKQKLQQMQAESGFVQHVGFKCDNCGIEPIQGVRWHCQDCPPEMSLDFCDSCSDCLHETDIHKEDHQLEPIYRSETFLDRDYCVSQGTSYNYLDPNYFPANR
# UniProt Q8IY31, whole entry: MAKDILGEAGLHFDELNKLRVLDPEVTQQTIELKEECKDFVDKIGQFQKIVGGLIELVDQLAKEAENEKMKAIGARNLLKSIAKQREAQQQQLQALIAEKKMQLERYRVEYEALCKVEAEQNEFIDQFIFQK
# UniProt Q8IZY2: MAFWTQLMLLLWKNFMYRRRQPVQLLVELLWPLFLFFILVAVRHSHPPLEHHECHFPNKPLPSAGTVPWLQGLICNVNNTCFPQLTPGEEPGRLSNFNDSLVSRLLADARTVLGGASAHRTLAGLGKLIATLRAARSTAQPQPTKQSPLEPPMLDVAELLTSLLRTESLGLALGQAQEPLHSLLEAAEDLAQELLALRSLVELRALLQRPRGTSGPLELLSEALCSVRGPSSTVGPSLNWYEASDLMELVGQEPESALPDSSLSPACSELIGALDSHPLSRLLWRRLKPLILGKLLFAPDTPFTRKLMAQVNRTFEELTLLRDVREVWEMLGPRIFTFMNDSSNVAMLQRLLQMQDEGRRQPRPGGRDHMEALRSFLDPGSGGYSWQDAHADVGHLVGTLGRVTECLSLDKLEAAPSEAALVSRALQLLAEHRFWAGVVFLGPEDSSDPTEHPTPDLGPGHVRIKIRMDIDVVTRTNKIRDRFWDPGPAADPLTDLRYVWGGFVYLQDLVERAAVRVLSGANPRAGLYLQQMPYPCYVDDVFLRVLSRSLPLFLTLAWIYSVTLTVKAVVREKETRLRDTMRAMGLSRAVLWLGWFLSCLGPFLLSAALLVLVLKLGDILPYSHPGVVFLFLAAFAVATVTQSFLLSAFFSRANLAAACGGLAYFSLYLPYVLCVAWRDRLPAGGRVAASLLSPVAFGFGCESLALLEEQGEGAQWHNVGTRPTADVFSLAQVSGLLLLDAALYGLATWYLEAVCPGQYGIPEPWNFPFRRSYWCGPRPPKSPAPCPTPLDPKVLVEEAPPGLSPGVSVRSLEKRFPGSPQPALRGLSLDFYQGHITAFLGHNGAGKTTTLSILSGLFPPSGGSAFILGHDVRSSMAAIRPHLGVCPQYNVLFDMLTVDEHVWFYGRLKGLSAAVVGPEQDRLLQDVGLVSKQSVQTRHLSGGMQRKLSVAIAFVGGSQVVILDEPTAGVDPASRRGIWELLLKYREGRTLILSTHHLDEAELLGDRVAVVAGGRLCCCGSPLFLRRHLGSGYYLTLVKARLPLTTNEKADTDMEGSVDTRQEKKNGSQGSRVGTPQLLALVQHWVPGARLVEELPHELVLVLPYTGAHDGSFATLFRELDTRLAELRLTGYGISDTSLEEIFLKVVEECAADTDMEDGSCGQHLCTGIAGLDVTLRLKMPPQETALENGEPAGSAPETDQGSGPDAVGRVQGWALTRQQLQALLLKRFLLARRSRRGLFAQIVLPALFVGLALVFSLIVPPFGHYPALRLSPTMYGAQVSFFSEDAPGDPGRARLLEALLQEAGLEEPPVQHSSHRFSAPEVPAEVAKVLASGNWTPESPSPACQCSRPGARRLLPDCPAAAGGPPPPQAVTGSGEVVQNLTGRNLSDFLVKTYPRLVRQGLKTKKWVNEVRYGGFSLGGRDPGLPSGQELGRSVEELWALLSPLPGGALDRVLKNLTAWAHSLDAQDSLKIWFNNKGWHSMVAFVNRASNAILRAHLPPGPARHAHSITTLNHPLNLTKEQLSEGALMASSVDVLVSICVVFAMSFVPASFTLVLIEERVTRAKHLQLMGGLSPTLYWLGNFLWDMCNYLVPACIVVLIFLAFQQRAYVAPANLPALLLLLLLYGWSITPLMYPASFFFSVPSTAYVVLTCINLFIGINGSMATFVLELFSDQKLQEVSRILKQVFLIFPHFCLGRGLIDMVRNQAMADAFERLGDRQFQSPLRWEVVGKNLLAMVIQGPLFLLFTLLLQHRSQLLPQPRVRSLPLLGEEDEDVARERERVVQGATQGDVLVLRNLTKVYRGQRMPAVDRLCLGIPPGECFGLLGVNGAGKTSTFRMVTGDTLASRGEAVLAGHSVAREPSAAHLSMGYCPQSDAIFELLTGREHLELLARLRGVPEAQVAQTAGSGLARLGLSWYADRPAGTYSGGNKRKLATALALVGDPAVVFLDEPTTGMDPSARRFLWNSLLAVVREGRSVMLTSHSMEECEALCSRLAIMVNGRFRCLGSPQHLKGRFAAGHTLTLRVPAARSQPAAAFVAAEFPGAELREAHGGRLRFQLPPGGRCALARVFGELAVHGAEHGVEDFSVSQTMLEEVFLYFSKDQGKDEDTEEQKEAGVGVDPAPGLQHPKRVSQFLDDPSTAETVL
# UniProt Q86W42: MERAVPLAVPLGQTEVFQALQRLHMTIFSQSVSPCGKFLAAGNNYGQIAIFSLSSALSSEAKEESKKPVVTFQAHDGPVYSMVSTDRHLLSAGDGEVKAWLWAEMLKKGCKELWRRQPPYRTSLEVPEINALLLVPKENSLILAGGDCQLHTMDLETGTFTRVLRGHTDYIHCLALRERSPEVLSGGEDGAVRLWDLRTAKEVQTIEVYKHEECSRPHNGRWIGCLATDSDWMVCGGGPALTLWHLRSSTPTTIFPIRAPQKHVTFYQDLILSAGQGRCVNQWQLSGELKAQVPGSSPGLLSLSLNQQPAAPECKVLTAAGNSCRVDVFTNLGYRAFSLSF
# The list shows a part of the results. Most entries show no effect beyond the scatter of the controls.
# Compound: Cc1nc(Nc2ncc(C(=O)Nc3c(C)cccc3Cl)s2)cc(N2CCN(CCO)CC2)n1 [dasatinib]
# Assay: log2 fold change of tryptic peptide abundance, ligand vs vehicle (limited proteolysis) (log2 ratio); higher = more trypsin-susceptible (destabilized)
# Settings: ligand concentration: 5 uM; sample: K562 cleared lysate
row,Target,log2 fold change
1,"DZIP3 (peptide sequence: LHYQCEDFKR, peptide start residue: 760) (UniProt Q86Y13)",0.306
2,"FAM114A1 (peptide sequence: SLLSSASATVGHGLTAVK, peptide start residue: 136) (UniProt Q8IWE2)",-0.367
3,"PNPLA6 (peptide sequence: STDLNESR, peptide start residue: 1272) (UniProt Q8IY17)",-0.547
4,"UniProt Q86YR5 (peptide sequence: KYQEGPDAER, peptide start residue: 454)",0.525
5,"UniProt Q86WT1 (peptide sequence: VAFLLLDNPAYHSR, peptide start residue: 101)",-0.277
6,"UniProt Q86V71 (peptide sequence: SFCMLSQLTQHKK, peptide start residue: 181)",0.441
7,"SFR1 (peptide sequence: NQDFTFK, peptide start residue: 7) (UniProt Q86XK3)",-0.739
8,"PLD3 (peptide sequence: ALLNVVDNAR, peptide start residue: 310) (UniProt Q8IV08)",-0.181
9,"UniProt Q8IYK4 (peptide sequence: TLYEQEIEVK, peptide start residue: 362)",0.218
10,"ARMC8 (peptide sequence: CLHSLSR, peptide start residue: 407) (UniProt Q8IUR7)",-0.114
11,"CCDC28A (peptide sequence: TASDSNLDR, peptide start residue: 237) (UniProt Q8IWP9)",-0.0887
12,"HOMER1 (peptide sequence: SQNEQEAFR, peptide start residue: 315) (UniProt Q86YM7)",-0.577
13,"DNAJC10 (peptide sequence: AYEVLKDEDLRK, peptide start residue: 83) (UniProt Q8IXB1)",-0.234
14,"LUZP1 (peptide sequence: RTQSSLTVSEVLTR, peptide start residue: 992) (UniProt Q86V48)",0.519
15,"ANKRD13A (peptide sequence: ELEEWELR, peptide start residue: 564) (UniProt Q8IZ07)",0.0751
16,"IQGAP3 (peptide sequence: ACQVPEPEER, peptide start residue: 1253) (UniProt Q86VI3)",-0.558
17,"TCEAL8 (peptide sequence: FVMMHWK, peptide start residue: 96) (UniProt Q8IYN2)",-0.154
18,"SLX4 (peptide sequence: SGLAVQAVTQHTPR, peptide start residue: 1280) (UniProt Q8IY92)",0.224
19,"UniProt Q86V81 (peptide sequence: QYNGVPLDGR, peptide start residue: 165)",-0.197

# Reformatted with bars between the fields: part of the list above.
row | Target | log2 fold change
11 | CCDC28A (peptide sequence: TASDSNLDR, peptide start residue: 237) (UniProt Q8IWP9) | -0.0887
12 | HOMER1 (peptide sequence: SQNEQEAFR, peptide start residue: 315) (UniProt Q86YM7) | -0.577

# Further records:

row,Target,log2 fold change
1,"FBXO11 (peptide sequence: RTACPTKNSMEGASTSTTENFGHR, peptide start residue: 110) (UniProt Q86XK2)",-0.535
2,"MIER1 (peptide sequence: AYGKDFHLIQANKVR, peptide start residue: 302) (UniProt Q8N108)",0.628
3,"SHLD1 (peptide sequence: DITHFLLQQNVMK, peptide start residue: 191) (UniProt Q8IYI0)",-1.26
4,"AHI1 (peptide sequence: ETTSDDVSAANTNNLKK, peptide start residue: 76) (UniProt Q8N157)",0.43
5,"ZZZ3 (peptide sequence: SIAHPEEISSNSQVR, peptide start residue: 32) (UniProt Q8IYH5)",0.196
6,"UniProt Q8N0T1 (peptide sequence: KINIMNEEK, peptide start residue: 38)",-0.44
7,"WDFY3 (peptide sequence: ATAAWCTDSGSDDSRR, peptide start residue: 3318) (UniProt Q8IZQ1)",0.274
8,"NIT1 (peptide sequence: RPDLYGNLGHPLS, peptide start residue: 315) (UniProt Q86X76)",0.21
9,"IFT20 (peptide sequence: EAQQQQLQALIAEKK, peptide start residue: 87) (UniProt Q8IY31)",0.307
10,"UniProt Q8IZQ8 (peptide sequence: LADDLNEK, peptide start residue: 126)",0.0554
11,"CKAP2L (peptide sequence: QLEEWQK, peptide start residue: 467) (UniProt Q8IYA6)",-0.43
12,"ST13P4 (peptide sequence: SEENTKEEKPDSK, peptide start residue: 51) (UniProt Q8IZP2)",0.136
13,"ABCA7 (peptide sequence: MDIDVVTR, peptide start residue: 468) (UniProt Q8IZY2)",0.172
14,"UniProt Q8IWF6 (peptide sequence: SPNFDGWFK, peptide start residue: 511)",0.15
15,"KLHDC8B (peptide sequence: CSCSSLQAGPR, peptide start residue: 320) (UniProt Q8IXV7)",-0.13
16,"ZBED8 (peptide sequence: EKNPHTVAEK, peptide start residue: 105) (UniProt Q8IZ13)",0.0942
17,"THOC6 (peptide sequence: SSTPTTIFPIR, peptide start residue: 248) (UniProt Q86W42)",0.298
18,"CHD1L (peptide sequence: AILMKDLDAFENETAK, peptide start residue: 292) (UniProt Q86WJ1)",0.33
